Reference: publication PMC3603962
These are yes or no findings as the source states them, for the method shown. Some results given as binding are weak or reduced against the parent protein; the word gives no strength.

Sequences of proteins named here, by UniProt entry; tags and fusion partners are left off.
UniProt M9PH32: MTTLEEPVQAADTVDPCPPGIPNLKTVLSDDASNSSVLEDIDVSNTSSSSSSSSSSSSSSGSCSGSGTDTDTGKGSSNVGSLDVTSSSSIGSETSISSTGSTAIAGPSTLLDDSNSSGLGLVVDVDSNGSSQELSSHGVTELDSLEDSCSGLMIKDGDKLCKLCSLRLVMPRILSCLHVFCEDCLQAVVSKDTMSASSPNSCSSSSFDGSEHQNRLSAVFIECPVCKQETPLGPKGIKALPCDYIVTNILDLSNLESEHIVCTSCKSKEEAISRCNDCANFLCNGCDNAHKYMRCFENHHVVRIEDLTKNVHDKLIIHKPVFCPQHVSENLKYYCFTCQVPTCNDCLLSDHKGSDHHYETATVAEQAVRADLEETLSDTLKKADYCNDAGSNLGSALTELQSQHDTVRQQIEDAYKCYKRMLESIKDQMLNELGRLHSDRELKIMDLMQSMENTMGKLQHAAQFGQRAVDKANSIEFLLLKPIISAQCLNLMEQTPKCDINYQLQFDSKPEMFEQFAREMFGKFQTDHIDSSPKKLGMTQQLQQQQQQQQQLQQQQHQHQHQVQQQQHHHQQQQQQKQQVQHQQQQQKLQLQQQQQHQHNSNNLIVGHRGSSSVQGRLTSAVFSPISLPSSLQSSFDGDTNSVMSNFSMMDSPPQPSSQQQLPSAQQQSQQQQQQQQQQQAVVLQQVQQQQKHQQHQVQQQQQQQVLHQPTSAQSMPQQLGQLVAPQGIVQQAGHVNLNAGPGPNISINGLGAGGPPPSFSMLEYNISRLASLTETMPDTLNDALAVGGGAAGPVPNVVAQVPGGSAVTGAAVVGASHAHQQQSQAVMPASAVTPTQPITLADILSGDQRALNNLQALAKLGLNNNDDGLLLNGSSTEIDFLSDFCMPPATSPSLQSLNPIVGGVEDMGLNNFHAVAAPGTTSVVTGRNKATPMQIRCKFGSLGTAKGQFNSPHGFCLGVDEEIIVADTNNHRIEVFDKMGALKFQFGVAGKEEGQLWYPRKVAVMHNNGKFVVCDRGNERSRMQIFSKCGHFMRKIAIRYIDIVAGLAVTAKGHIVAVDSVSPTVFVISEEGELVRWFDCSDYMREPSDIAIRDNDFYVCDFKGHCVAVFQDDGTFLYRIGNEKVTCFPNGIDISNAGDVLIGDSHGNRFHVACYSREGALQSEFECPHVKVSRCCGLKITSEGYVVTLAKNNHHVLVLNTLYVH

T1: Bgcn yeast two-hybrid construct (Drosophila) (UniProt Q9W1I2)
T1 sequence: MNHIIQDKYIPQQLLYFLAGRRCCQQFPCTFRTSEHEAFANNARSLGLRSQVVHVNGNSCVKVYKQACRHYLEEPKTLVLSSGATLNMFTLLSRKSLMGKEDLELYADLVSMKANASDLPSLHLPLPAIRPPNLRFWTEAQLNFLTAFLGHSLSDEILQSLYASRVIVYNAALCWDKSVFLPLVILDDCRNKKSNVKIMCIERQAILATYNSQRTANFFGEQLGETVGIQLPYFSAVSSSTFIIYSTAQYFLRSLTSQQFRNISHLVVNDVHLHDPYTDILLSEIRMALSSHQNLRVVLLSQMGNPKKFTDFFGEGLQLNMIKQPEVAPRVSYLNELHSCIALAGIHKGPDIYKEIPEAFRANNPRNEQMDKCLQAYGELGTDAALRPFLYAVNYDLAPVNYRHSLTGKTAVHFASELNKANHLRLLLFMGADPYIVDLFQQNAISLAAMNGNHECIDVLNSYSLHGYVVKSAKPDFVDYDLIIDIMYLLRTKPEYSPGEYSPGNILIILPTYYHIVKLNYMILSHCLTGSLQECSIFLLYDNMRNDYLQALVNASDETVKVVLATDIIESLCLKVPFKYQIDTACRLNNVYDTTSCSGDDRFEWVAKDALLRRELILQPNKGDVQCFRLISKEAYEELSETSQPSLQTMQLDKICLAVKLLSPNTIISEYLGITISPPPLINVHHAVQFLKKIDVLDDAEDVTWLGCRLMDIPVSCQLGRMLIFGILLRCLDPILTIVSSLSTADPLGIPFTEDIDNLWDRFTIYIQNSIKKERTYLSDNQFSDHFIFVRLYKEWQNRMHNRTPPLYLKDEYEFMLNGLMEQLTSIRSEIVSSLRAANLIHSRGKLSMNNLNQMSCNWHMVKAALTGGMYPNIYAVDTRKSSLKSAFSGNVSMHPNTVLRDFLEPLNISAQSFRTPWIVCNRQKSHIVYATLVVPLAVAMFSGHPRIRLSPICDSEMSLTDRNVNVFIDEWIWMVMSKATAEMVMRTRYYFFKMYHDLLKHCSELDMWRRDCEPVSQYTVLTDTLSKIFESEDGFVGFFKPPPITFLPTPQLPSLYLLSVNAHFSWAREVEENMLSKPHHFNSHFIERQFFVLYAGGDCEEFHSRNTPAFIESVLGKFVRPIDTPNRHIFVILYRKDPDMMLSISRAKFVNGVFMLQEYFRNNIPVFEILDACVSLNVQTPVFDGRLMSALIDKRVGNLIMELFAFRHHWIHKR


What was measured:
[1] = biological target: T1, Bgcn yeast two-hybrid construct (Drosophila); assay: two-hybrid; LexA-based yeast two-hybrid, beta-galactosidase assay; pEG202 or pJG4.5 vectors
[2] = biological target: Mei-P26 yeast two-hybrid construct (Drosophila) (UniProt M9PH32); assay: as above

Row | binding [1] | binding [2] | Binder
1 | binds | – | Bam yeast two-hybrid construct (protein, UniProt P22745 1-442) MLNARDVCPEGNDDQQLDHNFKQMEEHLALMVEGNENEDPRKATCEYEDTNEDGATCTSGVLSEIQENFGRLRLCDVTAPLLEFHGLDCLQQIQKRSRHFAFDGSPAKKSRSGGVLVTGPKQKQLQKENVWNRKSKGSASADNIEKLPITIEKLHMIGLHGDCLEHNAVLRLMNLFRSLHDHLTADLGFSRQNSMPSDYLFDMPVKSTMPKSLNVRYQLQVLCTKVERFLVQQRRTLEANRHFDFEKYDECDKLLKGFASYLDNFKLLLKPKMRNRNGNSGSNADKFHTQRMERLLIGLRDWIKAAHLSVHVFNWEMDLEHRYSGAMTESHKSLNERAILLSGAELRAAEARGISAEDLFIAQRYKLGGPIYCVLEQHEFLSALIANPETYFPPSVVAICGPQKLGAVSMEQPSASEEEFEETEEVPSSPPRHTGRVPRFRS
2 | – | binds | Bgcn yeast two-hybrid construct (protein, UniProt Q9W1I2 1-1215) MNHIIQDKYIPQQLLYFLAGRRCCQQFPCTFRTSEHEAFANNARSLGLRSQVVHVNGNSCVKVYKQACRHYLEEPKTLVLSSGATLNMFTLLSRKSLMGKEDLELYADLVSMKANASDLPSLHLPLPAIRPPNLRFWTEAQLNFLTAFLGHSLSDEILQSLYASRVIVYNAALCWDKSVFLPLVILDDCRNKKSNVKIMCIERQAILATYNSQRTANFFGEQLGETVGIQLPYFSAVSSSTFIIYSTAQYFLRSLTSQQFRNISHLVVNDVHLHDPYTDILLSEIRMALSSHQNLRVVLLSQMGNPKKFTDFFGEGLQLNMIKQPEVAPRVSYLNELHSCIALAGIHKGPDIYKEIPEAFRANNPRNEQMDKCLQAYGELGTDAALRPFLYAVNYDLAPVNYRHSLTGKTAVHFASELNKANHLRLLLFMGADPYIVDLFQQNAISLAAMNGNHECIDVLNSYSLHGYVVKSAKPDFVDYDLIIDIMYLLRTKPEYSPGEYSPGNILIILPTYYHIVKLNYMILSHCLTGSLQECSIFLLYDNMRNDYLQALVNASDETVKVVLATDIIESLCLKVPFKYQIDTACRLNNVYDTTSCSGDDRFEWVAKDALLRRELILQPNKGDVQCFRLISKEAYEELSETSQPSLQTMQLDKICLAVKLLSPNTIISEYLGITISPPPLINVHHAVQFLKKIDVLDDAEDVTWLGCRLMDIPVSCQLGRMLIFGILLRCLDPILTIVSSLSTADPLGIPFTEDIDNLWDRFTIYIQNSIKKERTYLSDNQFSDHFIFVRLYKEWQNRMHNRTPPLYLKDEYEFMLNGLMEQLTSIRSEIVSSLRAANLIHSRGKLSMNNLNQMSCNWHMVKAALTGGMYPNIYAVDTRKSSLKSAFSGNVSMHPNTVLRDFLEPLNISAQSFRTPWIVCNRQKSHIVYATLVVPLAVAMFSGHPRIRLSPICDSEMSLTDRNVNVFIDEWIWMVMSKATAEMVMRTRYYFFKMYHDLLKHCSELDMWRRDCEPVSQYTVLTDTLSKIFESEDGFVGFFKPPPITFLPTPQLPSLYLLSVNAHFSWAREVEENMLSKPHHFNSHFIERQFFVLYAGGDCEEFHSRNTPAFIESVLGKFVRPIDTPNRHIFVILYRKDPDMMLSISRAKFVNGVFMLQEYFRNNIPVFEILDACVSLNVQTPVFDGRLMSALIDKRVGNLIMELFAFRHHWIHKR
